The list shows a part of the results.

The subject of the experiment is T1, CTL2-GFP (C. trachomatis L2/434/Bu, GFP-expressing).
T1 construct: L2/434/Bu, GFP-expressing
On the set-up: species or system HeLa; Intracellular C. trachomatis growth in HeLa cells, bulk GFP fluorescence relative to DMSO. As to conditions: bulk GFP, single well; 28.5 h, 10 µM; inhibitor.
For the compound `Cc1ccc(C(C)C)c(OCC(=O)N2CCN(Cc3nc4cc([N+](=O)[O-])ccc4n3C)CC2)c1` [CBK268519], the “% of control remaining” value is 106.833%.
With `CN1CCc2nc(SCc3cccnc3)c(C#N)cc2C1` [CBK267463], the “% of control remaining” value turned out to be 137.115%.
In the case of `CCCCCC(=O)N1CCc2cc(N3CC(CNC(C)=O)OC3=O)ccc21` (centres unmarked) [CBK007646] it was 109.324%.
For `COc1ccc(-c2c3c(nc4sc(C(=O)N5CCOCC5)c(N)c24)CC(C)(C)CC3=O)cc1` [CBK131884] the value was 99.5453%; for `O=C1Nc2ccc(S(=O)(=O)NCC(O)c3ccc([N+](=O)[O-])cc3)c3cccc1c23` (centres unmarked) [CBK266745], 121.747%; for `Cn1nc(C(C)(C)C)cc1NC(=O)CN1CCc2cncnc2C1` [CBK304934], 109.593%.
For `O=C(NCc1cccnc1)N1CCN(c2ccccc2)CC1` [CBK155178] the value was 111.781%.
Regarding `CSc1nnc(CC2CCN(C(=O)c3ccc(C)cc3F)CC2)n1C` [CBK306939], the “% of control remaining” value worked out at 103.478%.
With `COc1ccc2nc(NC(=O)c3ccc4c(c3)OCCO4)sc2c1` [CBK287572], the “% of control remaining” value is 110.304%.
Take `O=C(CO)N1CC2(CCN(CCc3c[nH]c4ccccc34)CC2)c2ccccc21` [CBK131503]: the “% of control remaining” value is reported as 103.259%.
Turning to `CC(=O)Nc1ccc(NC(=O)Cc2n[nH]c(=S)n2Cc2ccccc2)cc1` [CBK296754], the “% of control remaining” value was found to be 161.484%.
Consider `COc1ccc(-c2nc(C#N)c(NCCN3CCOCC3)o2)cc1` [CBK265769], for which the “% of control remaining” value came out at 119.872%.
Take `Cc1cccc(CC(=O)N2CCC(Cc3ccc(-c4cccc(C)c4)cc3)(C(N)=O)CC2)c1` [CBK285798]: the “% of control remaining” value stood at 72.9499%.
`NC(=O)CSc1nnc(NC(=O)c2ccc(Cl)cc2Cl)s1` [CBK287627]: the “% of control remaining” value was 176.749%.
Regarding `Cn1c(SCC(=O)Nc2cc(C(C)(C)C)no2)nnc1-c1ccc(C(C)(C)C)cc1` [CBK297133], the “% of control remaining” value was determined as 128.787%.
In the case of `N/C(=N\OC(=O)CSc1ccccc1)c1ccccn1` [CBK266056] it was 127.358%; in that of `COC1CCC(C(=O)N2CCC(COc3ccc(-c4ccc(S(C)(=O)=O)cc4)cn3)CC2)CC1` (centres unmarked) [CBK161995], 109.079%.
With `O=C(O)CCC(=O)Nc1ccccc1C(=O)NC1CCCCC1` [CBK267674], the “% of control remaining” value amounted to 87.0442%.
For `COc1cc(-c2cnc3cccnc3c2N)cc(OC)c1OC` [CBK081190] the value was 99.7603%; for `CC1CCN(S(=O)(=O)c2cccc3c(S(=O)(=O)N4CCC(C)CC4)cccc23)CC1` [CBK262071], 81.4351%.
With `Cc1ccc(OCC(=O)N2CCN(C(=O)c3cccs3)CC2)c([N+](=O)[O-])n1` [CBK297152], the “% of control remaining” value is recorded as 145.276%.
Turning to `CN1CCC(C(=O)NC(=O)NCCOc2cccc3ccccc23)CC1` [CBK051100], the “% of control remaining” value was 88.0865%.
Turning to `Cc1nn(C(C)CC(=O)NCCN2CCc3ccccc32)c(C)c1C` (centres unmarked) [CBK282675], the “% of control remaining” value was 128.722%.
In the case of `Cc1cc(Br)c(O)c(C(=O)N(C)CC(=O)Nc2cc(C)on2)c1` [CBK306002] it was 62.4165%; in that of `CC(=O)Nc1ccc(S(=O)(=O)NC2(C(F)(F)F)C(=O)Nc3c2c(=O)[nH]c(=O)n3CCc2ccccc2)cc1` (centres unmarked) [CBK267937], 80.2077%.
For `O=C(Cn1cccc2cc(-c3ccc(F)cc3)nc1-2)N1CCOCC1` [CBK284809] the value was 110.81%; for `COc1ccccc1N(CC(=O)Nc1c(C)cccc1C)S(=O)(=O)c1ccc(C)cc1` [CBK264810], 127.702%; for `O=C(Nc1ccncc1)c1cnc2cc(C(F)(F)F)ccc2c1O` [CBK116633T], 104.815%.
For `CC(C)c1ccccc1NC(=O)NC(=O)C1CCN(CCc2ccc(C#N)cc2)CC1` [CBK035010] the value was 111.076%; for `CSc1ccc(-n2cc(-c3ccc(F)cc3F)nn2)cc1` [CBK112979], 128.028%; for `COC(=O)Nc1ccc2c(c1)N(C(=O)CCN(C)C)c1ccccc1CC2` [CBK262972C], 100%.
Turning to `CCn1c(=O)c(C=Cc2cccc(Br)c2)nc2cc(C(=O)O)ccc21` [CBK295364], the “% of control remaining” value was 132.255%.
In the case of `O=C(NC1CCN(c2ncccn2)CC1)c1ccc[nH]c1=S` [CBK241695] it was 110.098%; in that of `CCCNC(=O)c1ccc(C)c(S(=O)(=O)Nc2ccc(C)cc2C)c1` [CBK269084], 108.967%.
In the case of `COC(=O)c1ccccc1NC(=O)CC1Sc2ccccc2NC1=O` (centres unmarked) [CBK269400] it was 129.114%; in that of `O=C(NCC1CCCO1)C1CCN(C(=O)c2cccc(F)c2)CC1` (centres unmarked) [CBK304633], 120.088%.
For `Cc1cc(NC(=O)OCc2cccnc2C)c2ccccc2n1` [CBK200129], the “% of control remaining” value amounted to 85.1519%.
In the case of `CC(C)(C)c1cc(CN)c(C(=O)O)o1` [CBK266510C] it was 146.14%; in that of `O=C(Cn1c(=O)oc2ccccc21)Nc1ccc(N2CCOCC2)c(Cl)c1` [CBK270079], 103.237%.
Regarding `NC(=O)CSc1nnc(-c2cccnc2)n1Cc1ccccc1` [CBK268672], the “% of control remaining” value was 94.8792%.
For `CN1CCC(N(C)C(=O)Nc2cccnc2)C1` (centres unmarked) [CBK156026] the value was 142.398%; for `O=C(Cn1cnc2ccccc21)N1CCc2[nH]c3ccccc3c2C1` [CBK281860], 127.932%; for `O=C(O)CCSC1=CCS(=O)(=O)c2ccc(Cl)cc21` [CBK013721], 87.0384%.
`Cc1ccc(Nc2nc(N)nc(CSc3nccn3C)n2)cc1` [CBK266468]: the “% of control remaining” value amounted to 120.753%.
As for `CCOC(=O)c1sc(Cl)nc1C(F)(F)F` [CBK026746], the “% of control remaining” value is 143.766%.
Consider `C[C@@H]1CN(C(=O)OCCn2cccc2)C[C@H](C)O1` [CBK200123], for which the “% of control remaining” value is given as 126.46%.
For `O=C(O)c1cc(S(=O)(=O)Nc2nnc(C(F)(F)F)s2)c(F)cc1Cl` [CBK062022], the “% of control remaining” value is on record as 107.975%.
With `CSCC[C@H](NC(=O)OC(C)(C)C)C(=O)NCc1csc(-c2ccccc2)n1` [CBK092345], the “% of control remaining” value came to 122.839%.
For the compound `CC(=O)N1CCc2sccc2C1c1ccccc1NCc1ccoc1` (centres unmarked) [CBK286432], the “% of control remaining” value is 24.592%.
Turning to `O=C1/C(=C/NCc2cccnc2)C(c2ccccc2)=NN1c1ccc([N+](=O)[O-])cc1` [CBK262911], the “% of control remaining” value turned out to be 119.352%.
Take `COc1ccc(C2(C(=O)NCc3cnc(C)cn3)CC2)cc1` [CBK149830]: the “% of control remaining” value was found to be 104.865%.
`Cc1nc(SCC(N)=O)nc(C)c1CCC(=O)NCc1ccc(F)cc1` [CBK295201]: the “% of control remaining” value was 124.803%.
Take `CC(C)CN1CCCN(S(=O)(=O)c2ccc(-n3cnc(Cl)c3Cl)cc2)CC1` [CBK063017]: the “% of control remaining” value is recorded as 104.763%.
In the case of `Cc1ccc(/C=C/C(=O)O)cc1S(=O)(=O)NCCO` [CBK264404] it was 100%; in that of `O=c1n(C(c2ccccc2)c2ccccc2)ccn1S(=O)(=O)c1ccc(Oc2ccccc2)cc1` [CBK106624], 100.377%; in that of `Cc1ccc2oc([C@H]3CN(C(=O)C4CCN(C(=O)OC(C)(C)C)CC4)C[C@@H]3C(=O)O)cc2c1` [CBK001601], 134.23%.
In the case of `CC1(C)CC(=O)c2c(O)cc(OCC(=O)c3ccc(Cl)c(Cl)c3)cc2O1` [CBK267573] it was 130.85%; in that of `O=C(CNS(=O)(=O)c1cccc(Cl)c1)Nc1ccc(-c2nc3ccccc3s2)cc1` [CBK267178], 156.664%; in that of `COc1ccc(CC(=O)N2CCCC(c3nc(C)c4c(n3)N(CC3CC3)CCC4)C2)cc1` (centres unmarked) [CBK286228], 5.486%.
Consider `C/C(=N\NC(=O)CCC(=O)Nc1ccccc1C)c1ccc(O)cc1O` [CBK261946], for which the “% of control remaining” value came out at 127.586%.
Regarding `COc1ccc(C)cc1-n1ccc(C(=O)N2CCSCC2)n1` [CBK305972], the “% of control remaining” value was determined as 151.209%.
In the case of `Cn1cccc1C(=O)NCCNC(=O)c1cc2ccccc2[nH]1` [CBK297894] it was 89.019%; in that of `Cc1cc(C(=O)N2CC3CCCC(O)(c4cccn4C)C3C2)c(C)[nH]1` (centres unmarked) [CBK284514], 115.844%.
In the case of `CC(=O)Nc1ccc(NC(=O)c2cc(-c3ccc(Cl)cc3Cl)nc3ccccc23)cc1` [CBK265080] it was 100%; in that of `O=C(CSc1nc2ccccc2[nH]1)n1c2c(c3ccccc31)CCCC2` [CBK263945], 99.0451%; in that of `CN1C(=O)/C(=C2\SC(=S)N(C(Cc3ccccc3)C(=O)O)C2=O)c2ccccc21` (centres unmarked) [CBK263507], 113.104%.
Turning to `Cn1cc(C(Nc2cccc(C#N)n2)[C@H]2C[C@H](O)C2)cn1` (some centres unmarked) [CBK307011], the “% of control remaining” value worked out at 118.299%.
Consider `Clc1nc2ccccc2nc1OCCOc1ccccc1` [CBK113367], for which the “% of control remaining” value came out at 94.4253%.
Consider `COCCNc1nc(-c2ccoc2)cn2ccnc12` [CBK066416], for which the “% of control remaining” value is 153.649%.
In the case of `CCN(C(=O)c1n[nH]c2c1CCC2)C1CCN(C)CC1` [CBK281870] it was 130.151%.
In the case of `Cc1cc(C)nc(N/N=C/c2cn(-c3ccccc3)nc2-c2ccc([N+](=O)[O-])cc2)n1` [CBK262864] it was 118.773%.
In the case of `FC(F)(F)c1ccc(OCCN2CCNCC2)nc1` [CBK113462] it was 121.486%.
Take `Cc1nc2c(c(N(C)C)n1)CCN(C(=O)C(C)n1cc(Cl)cn1)C2` (centres unmarked) [CBK307293]: the “% of control remaining” value was 155.563%.
For `CC(C)c1ccc(OCCc2cc(C3CCN(C(=O)CC4CCCC4)C3)n[nH]2)cc1` (centres unmarked) [CBK286129] the value was 60.9406%; for `Cc1cc(C)n(CCCN(C)Cc2ccc(N3CCCC3=O)cc2)n1` [CBK281827], 125.045%.
In the case of `CCCC(=O)NC[C@H]1CC[C@H](c2nnc(-c3ccsc3)o2)CC1` [CBK283362] it was 118.408%.
For `COc1cc(Nc2nc(-c3ccc4[nH]ccc4c3)cn3ccnc23)cc(OC)c1OC` [CBK038069] the value was 199.938%.

Source of the values: paper PMC12040169 (PLOS Biology, 2025).
